Measurements from the supplement of paper PMC12593923.

How the values were obtained:
Test in all cases: drug sensitivity score (DSS2, cytotoxicity, CellTox Green); higher = more cytotoxic / more sensitive; extreme values may be limits of the assay
Details in all cases: 72 h; doses 0.5, 1, 5 µM
[1] = tested on: OVCAR3
[2] = tested on: OVCAR4
[3] = tested on: Kuramochi

| Compound | drug sensitivity score [1] [DSS] | drug sensitivity score [2] [DSS] | drug sensitivity score [3] [DSS] |
| --- | --- | --- | --- |
| CC[C@]1(O)C[C@H]2CN(CCc3c([nH]c4ccccc34)[C@@](C(=O)OC)(c3cc4c(cc3OC)N(C=O)[C@H]3[C@@](O)(C(=O)OC)[C@H](OC(C)=O)[C@]5(CC)C=CCN6CC[C@]43[C@@H]65)C2)C1 [Vincristine (sulfate)] | 5 | 0 | 2.4 |
| CN(C)CCOc1ccc(/C(=C(/CCCl)c2ccccc2)c2ccccc2)cc1 [Toremifene (citrate)] | 0 | 0 | 0 |
| NC(=O)N1c2ccccc2C=Cc2ccccc21 [Carbamazepine] | 0 | 0 | 0 |
| O=c1[nH]cnc2c([C@@H]3N[C@H](CO)[C@@H](O)[C@H]3O)c[nH]c12 [Forodesine (hydrochloride)] | 2.4 | 0 | 0 |
| CC(C)=CCOc1ccc(/C=C/C(=O)c2ccc(OCC=C(C)C)cc2OCC(=O)O)cc1 [Sofalcone] | 0 | 0 | 0 |
| O=C(c1ccc(F)c(F)c1Nc1ccc(I)cc1F)N1CC(O)([C@@H]2CCCCN2)C1 [Cobimetinib (hemifumarate)] | 0 | 0 | 0 |
| Nc1nnc(-c2cccc(Cl)c2Cl)c(N)n1 [Lamotrigine] | 0 | 0 | 0 |
| COc1ccc2[nH]c([S+]([O-])Cc3ncc(C)c(OC)c3C)nc2c1 (centres undefined) [Omeprazole] | 0 | 0 | 0 |
| COC(=O)N[C@@H](C)CNc1nccc(-c2cn(C(C)C)nc2-c2cc(Cl)cc(NS(C)(=O)=O)c2F)n1 [Encorafenib] | 0 | 0 | 0 |
| Cn1cnc([N+](=O)[O-])c1Sc1ncnc2[nH]cnc12 [Azathioprine] | 2 | 2.7 | 0 |
| C[C@]12CC[C@@H]3c4ccc(OS(=O)(=O)O)cc4CC[C@H]3[C@@H]1CCC2=O [Estropipate] | 0 | 0 | 0 |
| O=C1OC(C(O)CO)C([O-])=C1O.[Na+] [L-Ascorbic acid (sodium salt)] | 0 | 0 | 0 |
| CNC(=O)c1cc(Oc2ccc(NC(=O)Nc3ccc(Cl)c(C(F)(F)F)c3)cc2)ccn1 [Sorafenib] | 0 | 0 | 0 |
| Cc1ccccc1C(=O)Nc1ccc(C(=O)N2CCCC(O)c3cc(Cl)ccc32)c(C)c1 (centres undefined) [Tolvaptan] | 0 | 0 | 0 |
| C[C@]12CC[C@@H]3c4ccc(O)cc4C[C@@H](CCCCCCCCC[S+]([O-])CCCC(F)(F)C(F)(F)F)[C@H]3[C@@H]1CC[C@@H]2O (some centres undefined) [Fulvestrant] | 0 | 0 | 0 |
| O=C1C2CCN(CC2)C1(CO)CO [PRIMA-1] | 0 | 0 | 0 |
| CC/C(=C(\c1ccccc1)c1ccc(OCCN(C)C)cc1)c1ccccc1 [Tamoxifen] | 0 | 0 | 0 |

Quoted from the listing:
For drug sensitivity score [2] [DSS], Cc1ccccc1C(=O)Nc1ccc(C(=O)N2CCCC(O)c3cc(Cl)ccc32)c(C)c1 (centres undefined) [Tolvaptan] shows 0
For drug sensitivity score [2] [DSS], COC(=O)N[C@@H](C)CNc1nccc(-c2cn(C(C)C)nc2-c2cc(Cl)cc(NS(C)(=O)=O)c2F)n1 [Encorafenib] shows 0

More compounds follow.

| Compound | drug sensitivity score [1] [DSS] | drug sensitivity score [2] [DSS] | drug sensitivity score [3] [DSS] |
| --- | --- | --- | --- |
| CN[C@H](CC(C)C)C(=O)N[C@H]1C(=O)N[C@@H](CC(N)=O)C(=O)N[C@H]2C(=O)N[C@H]3C(=O)N[C@H](C(=O)N[C@H](C(=O)O)c4cc(O)cc(O)c4-c4cc3ccc4O)[C@H](O)c3ccc(c(Cl)c3)Oc3cc2cc(c3O[C@@H]2O[C@H](CO)[C@@H](O)[C@H](O)[C@H]2O[C@H]2C[C@](C)(N)[C@H](O)[C@H](C)O2)Oc2ccc(cc2Cl)[C@H]1O [Vancomycin (hydrochloride)] | 0 | 0 | 0 |
| CCOC(=O)C1=C(C)NC(C)=C(C(=O)OCC)C1c1ccccc1/C=C/C(=O)OC(C)(C)C [Lacidipine] | 0 | 0 | 0 |
| N=C(N)NC(=O)c1nc(Cl)c(N)nc1N [Amiloride (hydrochloride)] | 0 | 0 | 0 |
| COC(=O)C1=C(C)NC(C)=C(C(=O)OC)C1c1ccccc1[N+](=O)[O-] [Nifedipine] | 0 | 0 | 0 |
| CC(C)c1nc(CN(C)C(=O)N[C@H](C(=O)N[C@@H](Cc2ccccc2)C[C@H](O)[C@H](Cc2ccccc2)NC(=O)OCc2cncs2)C(C)C)cs1 [Ritonavir] | 0 | 0 | 0 |
| CCS(=O)(=O)N1CC(CC#N)(n2cc(-c3ncnc4[nH]ccc34)cn2)C1 [Baricitinib (phosphate)] | 0 | 0 | 0 |
| CC(C)[C@]12O[C@H]1[C@@H]1O[C@@]13[C@@]1(C)CCC4=C(COC4=O)[C@@H]1C[C@@H]1O[C@@]13C2=O [Triptonide] | 0 | 2.1 | 0.1 |
| CC[C@H]1OC(=O)[C@H](C)[C@@H](O[C@H]2C[C@@](C)(OC)[C@@H](O)[C@H](C)O2)[C@H](C)[C@@H](O[C@@H]2O[C@H](C)C[C@H](N(C)C)[C@H]2O)[C@](C)(OC)C[C@@H](C)C(=O)[C@H](C)[C@@H](O)[C@]1(C)O [Clarithromycin] | 0 | 0 | 0 |
| CC(C)(C)c1ccc(C(O)CCCN2CCC(C(O)(c3ccccc3)c3ccccc3)CC2)cc1 (centres undefined) [Terfenadine] | 0 | 1.3 | 0.8 |
| CCCC(CCC)C(=O)O [Valproic acid] | 0 | 0 | 0 |
| CC(O)(CS(=O)(=O)c1ccc(F)cc1)C(=O)Nc1ccc(C#N)c(C(F)(F)F)c1 (centres undefined) [Bicalutamide] | 0 | 0 | 0 |
| C[C@@H]1CC[C@]2(C(=O)O[C@@H]3O[C@H](CO)[C@@H](O)[C@H](O)[C@H]3O)CC[C@]3(C)C(=CC[C@@H]4[C@@]5(C)CC[C@H](O[C@@H]6OC[C@H](O)[C@H](O)[C@H]6O)C(C)(C)[C@@H]5CC[C@]43C)[C@@H]2[C@]1(C)O [Ziyuglycoside I] | 0 | 0 | 0 |
| O=C(O)c1cccnc1 [Niacin] | 0 | 0 | 0 |
| Nc1nc(NC2CC2)c2ncn([C@H]3C=C[C@@H](CO)C3)c2n1 [Abacavir (sulfate)] | 0.1 | 0 | 0 |
| N#CC[C@H](C1CCCC1)n1cc(-c2ncnc3[nH]ccc23)cn1 [Ruxolitinib (phosphate)] | 0 | 0 | 0 |
| NS(=O)(=O)C#Cc1ccccc1 [Pifithrin-μ] | 2.3 | 2.4 | 2.8 |

Where a name gives a salt, the structure may show the parent alone. Several reference drugs read as weak here; read low effects with care.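 OVCAR3, described as chemosensitive, is one of three high-grade serous ovarian cancer lines that differ in chemosensitivity. Toxicity was scaled from DMSO vehicle wells to fully lysed wells; scores came from fitted multi-dose response curves, and the authors treated scores above 5 as indicating drug sensitivity.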
